Measured values published in paper PMC7775746.
Results are given in words; binding and its absence hold for the method and conditions named. In cells and extracts the contact can be indirect. Some entries that bind do so weakly or less than the wild type. Where a sequence is shown, tags or fusion partners need not be part of it.

The chains behind the UniProt entries cited, without tags or fusion partners.
UniProt P01100: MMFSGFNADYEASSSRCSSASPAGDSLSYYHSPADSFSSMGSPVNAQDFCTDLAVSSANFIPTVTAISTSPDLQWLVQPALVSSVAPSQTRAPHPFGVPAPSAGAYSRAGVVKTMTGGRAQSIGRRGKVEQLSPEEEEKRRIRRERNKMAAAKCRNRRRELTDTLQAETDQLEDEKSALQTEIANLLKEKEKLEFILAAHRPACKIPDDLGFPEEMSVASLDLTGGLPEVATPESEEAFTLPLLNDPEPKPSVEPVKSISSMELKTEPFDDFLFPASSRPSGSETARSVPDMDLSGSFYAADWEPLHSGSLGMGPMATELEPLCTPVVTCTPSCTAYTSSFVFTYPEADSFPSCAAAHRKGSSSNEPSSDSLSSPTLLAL
UniProt O95863: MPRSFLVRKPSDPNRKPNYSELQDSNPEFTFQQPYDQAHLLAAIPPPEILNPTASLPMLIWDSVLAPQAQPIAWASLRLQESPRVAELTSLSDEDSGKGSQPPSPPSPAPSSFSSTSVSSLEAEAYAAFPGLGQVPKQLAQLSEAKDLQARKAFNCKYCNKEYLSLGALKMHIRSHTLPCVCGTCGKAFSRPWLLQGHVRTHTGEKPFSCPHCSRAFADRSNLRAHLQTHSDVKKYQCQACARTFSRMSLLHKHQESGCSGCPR
UniProt P40763: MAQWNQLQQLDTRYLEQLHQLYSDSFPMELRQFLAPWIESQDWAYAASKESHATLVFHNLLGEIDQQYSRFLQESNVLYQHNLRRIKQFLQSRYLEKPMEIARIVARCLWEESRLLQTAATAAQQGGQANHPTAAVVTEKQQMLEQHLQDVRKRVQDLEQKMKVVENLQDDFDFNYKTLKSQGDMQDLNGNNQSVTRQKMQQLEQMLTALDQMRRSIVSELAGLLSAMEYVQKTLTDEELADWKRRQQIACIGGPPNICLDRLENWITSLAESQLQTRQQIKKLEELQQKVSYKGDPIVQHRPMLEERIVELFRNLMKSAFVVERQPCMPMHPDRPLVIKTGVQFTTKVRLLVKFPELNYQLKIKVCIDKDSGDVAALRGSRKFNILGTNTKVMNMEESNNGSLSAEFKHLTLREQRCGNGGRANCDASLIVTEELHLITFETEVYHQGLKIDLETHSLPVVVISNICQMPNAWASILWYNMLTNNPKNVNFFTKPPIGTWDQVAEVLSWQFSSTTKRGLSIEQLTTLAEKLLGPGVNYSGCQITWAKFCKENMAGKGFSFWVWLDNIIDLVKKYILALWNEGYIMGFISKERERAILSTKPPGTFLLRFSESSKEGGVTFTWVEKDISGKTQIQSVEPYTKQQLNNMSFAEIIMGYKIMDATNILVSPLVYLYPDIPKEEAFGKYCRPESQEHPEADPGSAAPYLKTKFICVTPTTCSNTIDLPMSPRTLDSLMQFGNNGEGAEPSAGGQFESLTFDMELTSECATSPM

T1: S100A9-Flag (human (cDNA from MCF-10A–ER-Src cells)) (UniProt P06702)
T1 sequence: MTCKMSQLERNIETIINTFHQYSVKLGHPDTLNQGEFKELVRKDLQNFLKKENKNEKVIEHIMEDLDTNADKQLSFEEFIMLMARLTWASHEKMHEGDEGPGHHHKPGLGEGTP

B1: CTCF (protein, UniProt P49711 1-727)
chain: MEGDAVEAIVEESETFIKGKERKTYQRRREGGQEEDACHLPQNQTDGGEVVQDVNSSVQMVMMEQLDPTLLQMKTEVMEGTVAPEAEAAVDDTQIITLQVVNMEEQPINIGELQLVQVPVPVTVPVATTSVEELQGAYENEVSKEGLAESEPMICHTLPLPEGFQVVKVGANGEVETLEQGELPPQEDPSWQKDPDYQPPAKKTKKTKKSKLRYTEEGKDVDVSVYDFEEEQQEGLLSEVNAEKVVGNMKPPKPTKIKKKGVKKTFQCELCSYTCPRRSNLDRHMKSHTDERPHKCHLCGRAFRTVTLLRNHLNTHTGTRPHKCPDCDMAFVTSGELVRHRRYKHTHEKPFKCSMCDYASVEVSKLKRHIRSHTGERPFQCSLCSYASRDTYKLKRHMRTHSGEKPYECYICHARFTQSGTMKMHILQKHTENVAKFHCPHCDTVIARKSDLGVHLRKQHSYIEQGKKCRYCDAVFHERYALIQHQKSHKNEKRFKCDQCDYACRQERHMIMHKRTHTGEKPYACSHCDKTFRQKQLLDMHFKRYHDPNFVPAAFVCSKCGKTFTRRNTMARHADNCAGPDGVEGENGGETKKSKRGRKRKMRSKKEDSSDSENAEPDLDDNEDEEEPAVEIEPEPEPQPVTPAPPPAKKRRGRPPGRTNQPKQNQPTAIIQVEDQNTGAIENIIVEVKKEPDAEPAEGEEEEAQPAATDAPNGDLTPEMILSMMDR

Target: T1, S100A9-Flag (human (cDNA from MCF-10A–ER-Src cells))
Experiment: co-IP; Flag-tagged protein immunoprecipitated from nuclear extract of MCF-10A–ER-Src cells treated with EtOH or TAM; extract made in 420 mM NaCl buffer C, diluted to 100 mM NaCl, 0.4% NP-40, treated overnight with Benzonase (nucleic acids degraded); Western blot

binding | Molecule
binds | FOS (from UniProt P01100 1-380)
no binding | SNAI1 (from UniProt O95863 1-264)
binds | STAT3 (from UniProt P40763 1-770)
binds | B1
